No constants are given. Whether binding was seen depends on the method and setting. Binding seen in cells or lysates may run through a third protein. Here binding means that the protein was enriched with, or labelled near, the bait; the list need not be complete. Sequences can lack the tags named with a protein.
Target: T1, Peanut agglutinin (PNA), agarose-conjugated (Arachis hypogaea) (UniProt P02872)
T1 sequence: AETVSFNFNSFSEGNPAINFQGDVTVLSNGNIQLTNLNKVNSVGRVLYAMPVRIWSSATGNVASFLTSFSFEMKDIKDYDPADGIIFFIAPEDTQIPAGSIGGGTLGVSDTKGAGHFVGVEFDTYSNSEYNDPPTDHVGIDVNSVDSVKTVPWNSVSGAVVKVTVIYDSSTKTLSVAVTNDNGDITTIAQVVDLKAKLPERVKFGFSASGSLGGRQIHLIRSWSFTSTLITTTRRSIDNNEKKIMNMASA
Experiment: affinity purification with mass spectrometry; cleared HUVEC lysate (PBS, 0.5% Triton X-100, 0.5% NP-40) applied to PNA-agarose, three washes with PBS, eluted with 0.2 M lactose/PBS, LC/MS-MS; only the target purified

Sequences of proteins named here, by UniProt entry; tags and fusion partners are left off. Residues count along the entry.
UniProt P43121, residues 24-646: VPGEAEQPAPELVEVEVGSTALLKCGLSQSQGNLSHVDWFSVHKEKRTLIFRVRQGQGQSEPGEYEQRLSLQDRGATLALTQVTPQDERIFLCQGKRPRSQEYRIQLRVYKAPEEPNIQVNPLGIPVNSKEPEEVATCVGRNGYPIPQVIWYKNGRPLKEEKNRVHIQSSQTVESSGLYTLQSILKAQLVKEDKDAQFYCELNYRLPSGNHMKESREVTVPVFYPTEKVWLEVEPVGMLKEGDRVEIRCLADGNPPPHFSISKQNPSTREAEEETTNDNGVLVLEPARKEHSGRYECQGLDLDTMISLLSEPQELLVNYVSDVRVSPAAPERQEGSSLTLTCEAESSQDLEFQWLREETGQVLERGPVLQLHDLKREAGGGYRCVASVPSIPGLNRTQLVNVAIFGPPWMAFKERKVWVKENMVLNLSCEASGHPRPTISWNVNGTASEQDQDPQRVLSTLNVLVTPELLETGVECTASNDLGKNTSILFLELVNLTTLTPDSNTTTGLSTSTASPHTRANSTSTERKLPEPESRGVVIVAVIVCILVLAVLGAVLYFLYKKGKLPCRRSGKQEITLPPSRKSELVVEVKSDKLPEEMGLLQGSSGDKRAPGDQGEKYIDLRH

binding: binds
Substance: MCAM (CD146), melanoma cell adhesion molecule (from UniProt P43121 24-646) (receptor)

Reference: publication PMC8643467, “Appearance of peanut agglutinin in the blood circulation after peanut ingestion promotes endothelial secretion of metastasis-promoting cytokines” (Carcinogenesis, 2021)
